No constants are given. Whether binding was seen depends on the method and setting.
Target: α1-antitrypsin (Prolastin, plasma-derived) (human) (UniProt P01009)
Assay: far-Western, overlay or dot blot; both purified

The chains behind the UniProt entries cited, without tags or fusion partners. Residues count along the entry.
UniProt P01009, residues 25-418: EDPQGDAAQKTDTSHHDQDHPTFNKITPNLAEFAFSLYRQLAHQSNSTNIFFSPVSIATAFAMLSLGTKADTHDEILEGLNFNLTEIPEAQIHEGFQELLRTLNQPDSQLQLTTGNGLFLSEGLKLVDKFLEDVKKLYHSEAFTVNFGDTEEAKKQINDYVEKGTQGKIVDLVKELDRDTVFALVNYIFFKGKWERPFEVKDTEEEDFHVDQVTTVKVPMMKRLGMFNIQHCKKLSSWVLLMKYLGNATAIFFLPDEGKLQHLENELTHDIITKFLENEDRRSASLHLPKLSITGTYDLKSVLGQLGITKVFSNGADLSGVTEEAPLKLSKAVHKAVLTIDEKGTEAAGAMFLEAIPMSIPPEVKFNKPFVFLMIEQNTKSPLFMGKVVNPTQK
UniProt P04977, residues 35-269: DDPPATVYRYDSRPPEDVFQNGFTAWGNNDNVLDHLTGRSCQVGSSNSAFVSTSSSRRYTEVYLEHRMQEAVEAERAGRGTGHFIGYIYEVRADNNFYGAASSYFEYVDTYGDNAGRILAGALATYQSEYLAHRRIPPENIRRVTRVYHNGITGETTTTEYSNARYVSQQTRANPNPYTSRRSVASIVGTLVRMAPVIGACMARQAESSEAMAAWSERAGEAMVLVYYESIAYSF

For “recombinant PTS1 (enzyme subunit of pertussis toxin) (from UniProt P04977 35-269)”, which binding is on record?
Its binding is “no binding (tested: 200 ng/ml = 0.0007616 μM)”.

— PMC11683240
